## Small-molecule microarray binding calls

Calls as published in the ROBIN set (doi:10.1002/anie.202211358).

Targets (5′ to 3′):
SAM-II: SAM-II riboswitch RNA pseudoknot, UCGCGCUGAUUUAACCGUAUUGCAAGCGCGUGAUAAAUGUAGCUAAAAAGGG. About 200 hits among about 21,000 compounds.
PreQ1: PreQ1 riboswitch RNA pseudoknot, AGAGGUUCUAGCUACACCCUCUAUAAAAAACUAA. From B. subtilis. About 170 hits among about 24,000 compounds.
TPP: TPP riboswitch RNA three-way junction, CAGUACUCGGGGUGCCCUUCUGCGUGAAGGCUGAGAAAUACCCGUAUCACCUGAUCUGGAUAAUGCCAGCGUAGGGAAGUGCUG. About 160 hits among about 24,000 compounds.

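Compounds were printed on reactive glass slides in duplicate spots, a dye-labelled oligonucleotide was laid over them, and the fluorescence left after washing was read. The data file lists only calls. An earlier report of the laboratory on the PreQ1, TPP and SAM-II riboswitches (doi:10.1038/s41467-019-09493-3) used 1 µM RNA for 2 h and required a mean Z-score above 3 (spot signal-to-noise against the whole library), a score well above that on a control array, and duplicate spots agreeing (coefficient of variation under 100); it then also set aside compounds that hit other targets, which this list keeps. The cut-offs behind this list may differ. These are primary screening calls, not affinities; a compound without a hit may have attached poorly or may still bind in solution.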 Key: hit = hit, no hit = tested without a hit. The compounds are a random part of those screened. A target missing from an entry has no call listed here.

For Cc1cnc(CNC(=O)c2cccc(S(=O)(=O)N3CC[C@@H](O)C3)c2)cn1 the calls were SAM-II: no hit; PreQ1: no hit; TPP: no hit. For Nc1nc2c(s1)C(c1ccccc1F)CC(=O)N2 (stereo not given) the calls were SAM-II: no hit; PreQ1: no hit; TPP: no hit. Calls for CC(C)CN1CCC(NCc2ccc(-n3cncn3)cc2)CC1 are SAM-II: no hit; PreQ1: no hit; TPP: no hit. With CC(C)Cc1noc(C(C)NC2CCN(c3ccc4c(c3)OCO4)CC2)n1 (stereo not given) the screen gave SAM-II: no hit; PreQ1: no hit; TPP: no hit.

CCOc1ccc(CCNc2nc3ccc(Cl)cc3n3cnnc23)cc1OCC was scored PreQ1: no hit; TPP: no hit. Calls for COC(=O)c1ccc(Oc2cc(C)nc(N)n2)cc1 are SAM-II: no hit; PreQ1: no hit; TPP: no hit. Calls for CN(C)CCNC1=CC(=O)CC(C)(C)C1 are SAM-II: no hit; PreQ1: no hit; TPP: no hit. Calls for Fc1ccc(CNCc2cccc3[nH]ccc23)cc1 are SAM-II: no hit; PreQ1: no hit; TPP: no hit.

CCCCCNC(=O)c1nn(-c2ccc(CC)cc2)nc1CO was scored PreQ1: no hit; TPP: no hit. CCNc1ccccc1C(=O)OCC(=O)c1ccc(Oc2ccc([N+](=O)[O-])cc2)cc1 was scored SAM-II: no hit; PreQ1: no hit; TPP: no hit. Calls for Cc1[nH]c(-c2ccccc2)nc1C(=O)NCc1cc2n(n1)CCNC2 are SAM-II: no hit; PreQ1: no hit; TPP: no hit. For CN1c2ccccc2C2=C(C(c3cccnc3)C(C#N)=C(N)O2)S1(=O)=O (stereo not given) the calls were PreQ1: no hit; TPP: no hit.

With COc1ccc(Cn2nc(C(O)c3ccccc3)nc2CCO)cc1 (stereo not given) the screen gave SAM-II: no hit; PreQ1: no hit; TPP: no hit. CNc1ncn(-c2c(C)cccc2C)c(=O)n1 was scored SAM-II: no hit; PreQ1: no hit; TPP: no hit. For COc1ccc(-c2nc3ncccc3o2)cc1NC(=O)[C@@H](N)CCCCN the calls were SAM-II: no hit; PreQ1: no hit; TPP: no hit. CN(C)CCc1c[nH]c2ccc(Cn3cncn3)cc12 was scored SAM-II: no hit; PreQ1: no hit; TPP: no hit.

CC(Nc1cc(=O)oc2ccccc12)c1ccccc1 (stereo not given) was scored SAM-II: no hit; PreQ1: no hit; TPP: no hit. O=C(NC1CC1)c1cccc(S(=O)(=O)N2CCNC(c3ccccc3)C2)c1 (stereo not given) was scored SAM-II: no hit; PreQ1: no hit; TPP: no hit. CCOC(=O)CSc1nc2nc(Cl)c(Cl)nc2[nH]1 was scored SAM-II: no hit; PreQ1: no hit; TPP: no hit. With CN(C)[C@@H]1C[C@@H](CO)N(C(=O)NCCc2ccc(F)cc2)C1 the screen gave SAM-II: no hit; PreQ1: no hit; TPP: no hit.

With Nc1ccccc1Sc1cc(Cl)nnc1Cl the screen gave SAM-II: no hit; PreQ1: no hit; TPP: no hit. COc1ccc(-c2cc(C(F)(F)F)n3nc(N)nc3n2)cc1 was scored SAM-II: no hit; PreQ1: no hit; TPP: no hit. O=C(NCCOCc1ccc(Cl)cc1)c1cccc(C2CCCNC2)c1 (stereo not given) was scored SAM-II: no hit; PreQ1: no hit; TPP: no hit. With COc1ccc(C)cc1-n1nnc(-c2nc(-c3ccccc3C)no2)c1N the screen gave PreQ1: no hit; TPP: no hit.

OCc1ccc(-c2nccn2CCc2nc3c(s2)CCCC3)o1 was scored SAM-II: no hit; PreQ1: no hit; TPP: no hit. With CCCn1c(SCC(O)c2ccccc2)nc2ccccc21 (stereo not given) the screen gave PreQ1: no hit; TPP: no hit. With COc1ccc2ncc(-c3ccc(N4CCNCC4)cc3)cc2c1 the screen gave SAM-II: no hit; PreQ1: no hit; TPP: no hit. For Cn1c(N)c(C(=O)CNC2CCCCC2)c(=O)n(C)c1=O the calls were SAM-II: no hit; PreQ1: no hit; TPP: no hit.

O=S(=O)(c1ccccc1)c1nc(-c2cccs2)oc1NCC1CCCO1 (stereo not given) was scored PreQ1: no hit; TPP: no hit. For O=C(O)c1ccc(Cl)c(NCc2cccnc2)c1 the calls were SAM-II: no hit; PreQ1: no hit; TPP: no hit. CC(=Cc1ccco1)CN1CCn2nc(C(=O)NCCO)cc2C1 was scored SAM-II: no hit; PreQ1: no hit; TPP: no hit. For O=c1c(O)c(-c2cc(O)c(O)c(O)c2)oc2cc(O)cc(O)c12 the calls were SAM-II: no hit; PreQ1: no hit; TPP: no hit.

Calls for CC(C)Nc1nc(N(C)C)nc(-n2cnc(SCc3ccccc3)n2)n1 are PreQ1: no hit; TPP: no hit. OCCOc1ccc(CNc2ccc3cccnc3c2)cc1 was scored SAM-II: no hit; PreQ1: no hit; TPP: no hit.

The last 2 entries again:

{"structure": "CC(C)Nc1nc(N(C)C)nc(-n2cnc(SCc3ccccc3)n2)n1", "PreQ1": "no hit", "TPP": "no hit"}
{"structure": "OCCOc1ccc(CNc2ccc3cccnc3c2)cc1", "SAM-II": "no hit", "PreQ1": "no hit", "TPP": "no hit"}